Reference: patent US20090203667A1, “PENTADIENAMIDE DERIVATIVES” (Kyowa Hakko Kirin Co., Ltd., priority 2006, published 2009)
For at least one compound, name, drawing or mass did not settle the structure.

Tested on: entrapment nerve injury rat
Assay: Neuropathic pain inhibitory activity in entrapment nerve injury rat (von Frey pain threshold)
Format: in vivo
Settings: orally administered, dose of 20 mg/kg or less, measured after 1 hour, von Frey filaments
Excerpt: Neuropathic Pain Inhibitory Activity of Compound in Entrapment Nerve Injury Rat
The method of Mosconi, Kruger et al. (Pain, vol. 64, pp. 37-57 (1996)) was modified partially and an entrapment nerve injury rat was produced.
By using a male Crl:CD(SD) rat, the sciatic nerve of the left hind limb was exfoliated under pentobarbital anesthesia, and the exfoliated region was covered with a polyethylene tube (trade name: Intramedic, size: PE-60, manufactured by Becton Dickinson and Company) with a length of 2 mm. On days 14 to 21 after the surgery, the rat was placed in a stainless-steel connected cage (750 mm (length)×210 mm (depth)×170 mm (height)) consisting of 5 cages connected in a row and having a mesh floor and was acclimated to the environment for at least 20 minutes, and then, the pain was evaluated.
The pain was evaluated using von Frey filaments (trade name: touch test sensory evaluator, Model number: model 58011, manufactured by Muromachi Kikai), and the results were calculated as a pain threshold. […] Then, the pain threshold (paw withdrawal threshold) (g) was calculated by the up down method of Dixon [Annual Review of Pharmacology and Toxicology, vol. […]

Q: How did the “pain threshold (paw withdrawal threshold)” value turn out when `CCOc1ccc(/C(=C\C=C\C(=O)Nc2ccccc2C(O)CO)c2ccc(C(F)(F)F)cc2)cc1` (stereo not shown) [Compound 163, (2E,4Z)-N-[2-(1,2-Dihydroxyethyl)phenyl]-5-(4-ethoxyphenyl)-5-[4-(trifluoromethyl)phenyl]-2,4-pentadienamide] was run?
A: The value was “significantly increases the pain threshold”.
